Source: the supplement of paper PMC10849652
The list shows a part of the results.

Chains of the proteins cited; added tags and fusions are not shown. Lines headed by an entry give the natural chain unless they say otherwise; changes in a name come on top.
UniProt Q8NDZ4: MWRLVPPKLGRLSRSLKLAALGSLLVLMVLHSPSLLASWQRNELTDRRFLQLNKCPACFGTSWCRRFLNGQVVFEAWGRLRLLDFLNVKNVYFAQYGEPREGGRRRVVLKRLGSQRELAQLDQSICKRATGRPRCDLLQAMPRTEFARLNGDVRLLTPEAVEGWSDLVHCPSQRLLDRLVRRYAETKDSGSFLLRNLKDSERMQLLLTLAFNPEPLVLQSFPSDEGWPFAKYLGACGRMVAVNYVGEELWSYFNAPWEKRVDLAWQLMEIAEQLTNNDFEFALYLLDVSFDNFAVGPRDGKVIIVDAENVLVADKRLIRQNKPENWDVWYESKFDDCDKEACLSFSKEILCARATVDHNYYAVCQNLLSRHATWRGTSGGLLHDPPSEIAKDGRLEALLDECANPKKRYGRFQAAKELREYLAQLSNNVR
UniProt P98153: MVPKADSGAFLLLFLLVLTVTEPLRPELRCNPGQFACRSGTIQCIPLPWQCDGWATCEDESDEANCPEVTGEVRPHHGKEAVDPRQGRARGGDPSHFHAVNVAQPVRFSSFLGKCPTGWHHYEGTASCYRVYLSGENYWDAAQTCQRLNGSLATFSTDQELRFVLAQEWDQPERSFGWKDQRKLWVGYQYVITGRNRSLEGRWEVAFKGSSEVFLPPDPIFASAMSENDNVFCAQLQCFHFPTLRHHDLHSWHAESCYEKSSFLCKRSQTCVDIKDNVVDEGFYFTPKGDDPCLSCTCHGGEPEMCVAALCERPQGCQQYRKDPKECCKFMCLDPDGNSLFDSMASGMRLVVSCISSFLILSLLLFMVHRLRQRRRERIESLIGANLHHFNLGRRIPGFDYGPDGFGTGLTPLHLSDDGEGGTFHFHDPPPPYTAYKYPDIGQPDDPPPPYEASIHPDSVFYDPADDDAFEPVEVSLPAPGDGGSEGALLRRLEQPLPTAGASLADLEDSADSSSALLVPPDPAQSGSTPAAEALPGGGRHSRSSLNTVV
UniProt Q6P3W2: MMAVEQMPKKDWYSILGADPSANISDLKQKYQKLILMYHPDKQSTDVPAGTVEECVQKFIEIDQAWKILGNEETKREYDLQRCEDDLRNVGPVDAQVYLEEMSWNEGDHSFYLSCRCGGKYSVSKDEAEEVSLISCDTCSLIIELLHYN
UniProt Q6UX07: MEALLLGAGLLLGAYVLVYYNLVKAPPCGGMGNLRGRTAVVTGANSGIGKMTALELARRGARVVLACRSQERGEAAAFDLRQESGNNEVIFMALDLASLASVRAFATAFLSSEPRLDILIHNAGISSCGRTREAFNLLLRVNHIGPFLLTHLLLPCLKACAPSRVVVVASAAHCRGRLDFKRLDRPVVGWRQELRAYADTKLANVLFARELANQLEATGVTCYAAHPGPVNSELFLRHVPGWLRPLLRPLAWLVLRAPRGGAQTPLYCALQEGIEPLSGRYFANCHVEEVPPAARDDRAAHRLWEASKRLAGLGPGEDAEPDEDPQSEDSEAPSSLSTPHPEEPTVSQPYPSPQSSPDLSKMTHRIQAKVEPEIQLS
UniProt Q8TE73: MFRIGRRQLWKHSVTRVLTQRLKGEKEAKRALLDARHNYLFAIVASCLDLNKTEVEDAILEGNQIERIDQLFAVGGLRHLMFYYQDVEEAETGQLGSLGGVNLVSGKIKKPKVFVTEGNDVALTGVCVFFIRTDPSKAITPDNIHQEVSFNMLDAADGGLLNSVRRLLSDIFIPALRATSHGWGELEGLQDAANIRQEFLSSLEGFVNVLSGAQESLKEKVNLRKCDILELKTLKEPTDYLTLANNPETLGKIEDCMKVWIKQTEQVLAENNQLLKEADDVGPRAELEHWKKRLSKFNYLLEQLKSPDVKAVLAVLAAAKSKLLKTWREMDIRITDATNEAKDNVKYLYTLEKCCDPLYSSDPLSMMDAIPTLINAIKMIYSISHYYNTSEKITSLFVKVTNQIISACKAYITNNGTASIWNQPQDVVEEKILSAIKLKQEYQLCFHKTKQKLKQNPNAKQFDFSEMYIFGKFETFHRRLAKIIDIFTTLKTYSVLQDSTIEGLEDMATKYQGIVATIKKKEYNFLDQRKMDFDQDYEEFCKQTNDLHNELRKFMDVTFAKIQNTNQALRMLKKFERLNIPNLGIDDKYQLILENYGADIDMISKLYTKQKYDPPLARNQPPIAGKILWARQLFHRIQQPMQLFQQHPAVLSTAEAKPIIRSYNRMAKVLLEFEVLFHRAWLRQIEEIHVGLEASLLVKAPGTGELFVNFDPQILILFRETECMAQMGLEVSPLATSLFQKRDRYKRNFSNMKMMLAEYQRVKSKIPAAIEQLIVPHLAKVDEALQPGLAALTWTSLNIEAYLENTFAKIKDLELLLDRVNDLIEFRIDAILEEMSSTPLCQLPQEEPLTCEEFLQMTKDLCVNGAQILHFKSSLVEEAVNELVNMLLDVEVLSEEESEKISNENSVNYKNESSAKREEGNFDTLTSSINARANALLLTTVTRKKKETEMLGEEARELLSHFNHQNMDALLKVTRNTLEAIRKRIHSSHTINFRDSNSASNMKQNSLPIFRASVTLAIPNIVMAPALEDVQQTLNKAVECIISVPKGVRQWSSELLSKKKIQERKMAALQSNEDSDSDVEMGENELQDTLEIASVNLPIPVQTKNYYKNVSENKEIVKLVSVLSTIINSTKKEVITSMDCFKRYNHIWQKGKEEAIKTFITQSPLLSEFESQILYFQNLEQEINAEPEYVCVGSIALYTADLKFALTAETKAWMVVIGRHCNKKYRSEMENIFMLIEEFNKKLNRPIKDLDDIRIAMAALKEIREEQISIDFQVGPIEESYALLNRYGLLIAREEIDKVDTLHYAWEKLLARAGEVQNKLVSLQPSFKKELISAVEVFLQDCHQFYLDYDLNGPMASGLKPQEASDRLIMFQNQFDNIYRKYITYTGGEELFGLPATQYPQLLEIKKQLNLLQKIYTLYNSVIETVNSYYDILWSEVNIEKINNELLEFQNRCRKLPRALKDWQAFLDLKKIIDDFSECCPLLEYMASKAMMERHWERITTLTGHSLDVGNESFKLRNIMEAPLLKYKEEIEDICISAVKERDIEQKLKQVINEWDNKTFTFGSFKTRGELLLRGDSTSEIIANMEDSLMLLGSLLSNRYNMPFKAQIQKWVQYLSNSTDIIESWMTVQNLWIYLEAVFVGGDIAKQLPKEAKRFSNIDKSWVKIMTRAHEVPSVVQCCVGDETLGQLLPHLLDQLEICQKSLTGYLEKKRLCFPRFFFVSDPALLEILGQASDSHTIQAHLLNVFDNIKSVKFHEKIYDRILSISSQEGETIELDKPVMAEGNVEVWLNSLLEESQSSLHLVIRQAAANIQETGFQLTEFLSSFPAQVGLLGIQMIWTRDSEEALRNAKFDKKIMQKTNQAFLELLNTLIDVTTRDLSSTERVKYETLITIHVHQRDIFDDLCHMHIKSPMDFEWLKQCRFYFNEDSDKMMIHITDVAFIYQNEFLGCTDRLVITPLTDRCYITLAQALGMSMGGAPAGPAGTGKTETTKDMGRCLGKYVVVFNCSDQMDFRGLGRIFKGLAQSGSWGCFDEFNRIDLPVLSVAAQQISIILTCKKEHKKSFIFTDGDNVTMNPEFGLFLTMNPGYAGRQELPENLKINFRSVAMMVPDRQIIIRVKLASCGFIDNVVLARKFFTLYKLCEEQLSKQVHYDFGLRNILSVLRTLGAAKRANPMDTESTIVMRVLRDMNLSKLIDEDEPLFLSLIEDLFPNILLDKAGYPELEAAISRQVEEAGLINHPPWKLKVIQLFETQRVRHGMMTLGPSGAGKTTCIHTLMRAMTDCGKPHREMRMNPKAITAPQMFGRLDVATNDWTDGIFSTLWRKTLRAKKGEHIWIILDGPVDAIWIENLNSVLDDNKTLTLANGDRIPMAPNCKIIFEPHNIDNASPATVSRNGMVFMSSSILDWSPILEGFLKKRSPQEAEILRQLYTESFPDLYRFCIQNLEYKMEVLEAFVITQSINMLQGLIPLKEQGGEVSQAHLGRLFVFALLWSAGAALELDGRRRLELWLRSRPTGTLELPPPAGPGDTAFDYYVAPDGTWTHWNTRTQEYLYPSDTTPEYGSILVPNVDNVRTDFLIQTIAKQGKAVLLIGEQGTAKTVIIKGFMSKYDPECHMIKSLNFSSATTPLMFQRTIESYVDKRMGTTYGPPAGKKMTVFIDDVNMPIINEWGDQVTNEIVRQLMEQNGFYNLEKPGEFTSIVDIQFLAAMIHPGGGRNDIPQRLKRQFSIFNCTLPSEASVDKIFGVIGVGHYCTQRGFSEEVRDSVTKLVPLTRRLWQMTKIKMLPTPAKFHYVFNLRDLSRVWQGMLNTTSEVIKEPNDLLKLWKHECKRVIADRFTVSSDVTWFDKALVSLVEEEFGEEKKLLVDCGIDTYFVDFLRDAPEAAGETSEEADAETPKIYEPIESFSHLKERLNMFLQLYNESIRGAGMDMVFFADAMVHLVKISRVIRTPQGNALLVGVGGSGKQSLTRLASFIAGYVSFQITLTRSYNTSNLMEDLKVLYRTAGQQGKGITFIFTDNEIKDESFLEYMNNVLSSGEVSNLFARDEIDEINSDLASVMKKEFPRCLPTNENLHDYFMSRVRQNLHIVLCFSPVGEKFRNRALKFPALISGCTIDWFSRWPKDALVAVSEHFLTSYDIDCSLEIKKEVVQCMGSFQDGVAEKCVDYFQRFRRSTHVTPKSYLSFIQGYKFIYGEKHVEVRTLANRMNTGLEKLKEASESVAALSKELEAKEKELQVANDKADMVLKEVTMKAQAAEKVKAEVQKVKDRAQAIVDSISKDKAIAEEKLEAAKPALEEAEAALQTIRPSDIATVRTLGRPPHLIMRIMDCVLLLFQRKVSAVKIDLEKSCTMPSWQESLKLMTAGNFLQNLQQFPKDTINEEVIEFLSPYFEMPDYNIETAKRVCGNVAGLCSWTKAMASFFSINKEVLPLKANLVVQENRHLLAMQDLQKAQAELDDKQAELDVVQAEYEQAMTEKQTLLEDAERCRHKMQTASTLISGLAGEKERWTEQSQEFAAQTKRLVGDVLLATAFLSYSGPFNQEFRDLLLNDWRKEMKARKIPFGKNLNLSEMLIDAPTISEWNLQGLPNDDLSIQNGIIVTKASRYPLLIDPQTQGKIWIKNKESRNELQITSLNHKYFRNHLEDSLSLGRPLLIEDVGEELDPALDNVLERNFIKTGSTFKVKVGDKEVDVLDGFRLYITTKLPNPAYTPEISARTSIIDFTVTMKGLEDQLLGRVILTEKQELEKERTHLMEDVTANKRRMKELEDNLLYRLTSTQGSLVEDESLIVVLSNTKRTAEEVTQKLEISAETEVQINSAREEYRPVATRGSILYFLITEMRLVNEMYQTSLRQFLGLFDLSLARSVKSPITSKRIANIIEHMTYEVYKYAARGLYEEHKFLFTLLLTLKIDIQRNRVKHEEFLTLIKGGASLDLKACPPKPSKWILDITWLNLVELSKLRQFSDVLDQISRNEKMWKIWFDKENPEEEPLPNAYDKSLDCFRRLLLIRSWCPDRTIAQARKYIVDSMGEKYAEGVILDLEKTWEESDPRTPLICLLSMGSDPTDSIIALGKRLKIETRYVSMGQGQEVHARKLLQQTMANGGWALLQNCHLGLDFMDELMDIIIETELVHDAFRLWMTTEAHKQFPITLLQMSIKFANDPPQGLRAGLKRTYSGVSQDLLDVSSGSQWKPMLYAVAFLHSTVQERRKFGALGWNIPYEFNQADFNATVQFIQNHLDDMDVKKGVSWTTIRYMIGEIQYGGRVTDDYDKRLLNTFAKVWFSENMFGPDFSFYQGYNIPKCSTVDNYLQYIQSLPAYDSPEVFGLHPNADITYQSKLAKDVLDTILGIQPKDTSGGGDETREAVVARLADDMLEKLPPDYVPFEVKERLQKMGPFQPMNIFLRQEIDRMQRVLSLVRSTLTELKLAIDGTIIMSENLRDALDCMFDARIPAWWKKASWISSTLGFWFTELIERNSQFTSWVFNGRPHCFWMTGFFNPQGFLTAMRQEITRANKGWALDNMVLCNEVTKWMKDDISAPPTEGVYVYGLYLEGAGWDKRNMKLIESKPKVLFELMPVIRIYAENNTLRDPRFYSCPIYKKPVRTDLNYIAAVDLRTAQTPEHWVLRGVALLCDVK

Legend:
Assay in all cases: log2 fold change, soluble protein after heating vs DMSO (PISA); higher = thermal stabilisation; K562 lysate, 10 uM; active = over 0.2 and 3.5 SD of the protein, either way, in both replicates (recomputed)
lapatinib = compound: CS(=O)(=O)CCNCc1ccc(-c2ccc3ncnc(Nc4ccc(OCc5cccc(F)c5)c(Cl)c4)c3c2)o1 [lapatinib]
Outline: (§1)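 Pellets of K562 cells were dounce-homogenised in PBS pH 7.4 with 1 mM MgCl2, and the crude extract was held at 1 mg/mL protein for a 30 min treatment with 10 μM compound. Aliquots were heated for 3 min over 48°C-58°C and pooled before NP-40 was added to 0.5% at 4°C. The supernatant from 21,000xg for 90 min was quantified by TMTpro 16plex LC-MS/MS with channel sums equalised. Values are reported from duplicates as log-two fold change in thermal stability relative to solvent controls.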

pictilisib = compound: CS(=O)(=O)N1CCN(Cc2cc3nc(-c4cccc5[nH]ncc45)nc(N4CCOCC4)c3s2)CC1 [pictilisib]
Outline: as §1

crizotinib = compound: C[C@@H](Oc1cc(-c2cnn(C3CCNCC3)c2)cnc1N)c1c(Cl)ccc(F)c1Cl [crizotinib]
Outline: as §1

[1] = compound: C[C@H](C1=CC=C(C=C1)C(=O)NC2=C3C=CNC3=NC=C2)N
Outline: as §1

duvelisib = compound: C[C@H](Nc1ncnc2nc[nH]c12)c1cc2cccc(Cl)c2c(=O)n1-c1ccccc1 [duvelisib]
Outline: as §1

gandotinib = compound: Cc1cc(Nc2cc(CN3CCOCC3)c3nc(C)c(Cc4ccc(Cl)cc4F)n3n2)n[nH]1 [gandotinib]
Outline: as §1

doramapimod = compound: Cc1ccc(-n2nc(C(C)(C)C)cc2NC(=O)Nc2ccc(OCCN3CCOCC3)c3ccccc23)cc1 [doramapimod]
Outline: as §1

bafetinib = compound: Cc1ccc(NC(=O)c2ccc(CN3CC[C@H](N(C)C)C3)c(C(F)(F)F)c2)cc1Nc1nccc(-c2cncnc2)n1 [bafetinib]
Outline: as §1

[2] = compound: Cc1cccc(CC(=O)N2CCc3c2ccc(-c2cn(C)c4ncnc(N)c24)c3F)n1
Outline: as §1

nilotinib = compound: Cc1cn(-c2cc(NC(=O)c3ccc(C)c(Nc4nccc(-c5cccnc5)n4)c3)cc(C(F)(F)F)c2)cn1 [nilotinib]
Outline: as §1

[3] = compound: Cc1nc(Nc2n[nH]c3c2CN(C(=O)N[C@H](CN(C)C)c2ccccc2)C3(C)C)c2sccc2n1
Outline: as §1

dasatinib = compound: Cc1nc(Nc2ncc(C(=O)Nc3c(C)cccc3Cl)s2)cc(N2CCN(CCO)CC2)n1 [dasatinib]
Outline: as §1

[4] = compound: Cc1ncc(-c2ccnc(Nc3ccc(S(C)(=O)=O)cc3)n2)n1C(C)C
Outline: as §1

[5] = compound: Cn1cc(-c2ccc3c(c2)CCN3C(=O)Cc2cccc(C(F)(F)F)c2)c2c(N)ncnc21
Outline: as §1

quisinostat = compound: Cn1cc(CNCC2CCN(c3ncc(C(=O)NO)cn3)CC2)c2ccccc21 [quisinostat]
Outline: as §1

tipifarnib = compound: Cn1cncc1[C@@](N)(c1ccc(Cl)cc1)c1ccc2c(c1)c(-c1cccc(Cl)c1)cc(=O)n2C [tipifarnib]
Outline: as §1

[6] = compound: NC(=O)Nc1cc(-c2cccc(F)c2)sc1C(=O)N[C@H]1CCCNC1
Outline: as §1

[7] = compound: NC(=O)c1cnc(N[C@@H]2CCCC[C@@H]2N)nc1Nc1cccc(-n2nccn2)c1
Outline: as §1

[8] = compound: NC1(c2ccc(-c3nc4ccn5c(=O)[nH]nc5c4cc3-c3ccccc3)cc2)CCC1
Outline: as §1

tozasertib = compound: Cc1cc(Nc2cc(N3CCN(C)CC3)nc(Sc3ccc(NC(=O)C4CC4)cc3)n2)n[nH]1 [tozasertib]
Outline: as §1

Measured: log2 fold change

DNM1 (UniProt Q05193)
inactive: lapatinib -0.006 | pictilisib -0.084 | crizotinib 0.122 | [1] -0.124 | duvelisib -0.293 | gandotinib -0.007 | doramapimod -0.01 | bafetinib 0.077 | [2] 0.074 | nilotinib -0.093 | [3] -0.072 | dasatinib -0.089 | [4] 0.015 | [5] 0.137 | quisinostat -0.148 | tipifarnib -0.045 | [6] -0.045 | [7] -0.018 | [8] -0.069

DNPH1 (UniProt H0Y8X4)
inactive: lapatinib -0.009 | pictilisib -0.048 | crizotinib 0.005 | [1] -0.024 | duvelisib 0.012 | gandotinib 0.048 | tozasertib -0.037 | doramapimod 0.026 | bafetinib 0.083 | [2] -0.031 | nilotinib 0.014 | [3] 0.033 | dasatinib 0.035 | [4] -0.017 | [5] -0.031 | quisinostat 0.033 | tipifarnib 0.038 | [6] -0.018 | [7] -0.008 | [8] -0.012

DIS3L (UniProt Q8TF46)
inactive: lapatinib -0.014 | pictilisib 0.02 | crizotinib -0.064 | [1] -0.009 | duvelisib -0.034 | gandotinib -0.055 | tozasertib 0.019 | doramapimod 0.068 | bafetinib -0.138 | [2] -0.05 | nilotinib 0.042 | [3] -0.072 | dasatinib -0.03 | [4] -0.007 | [5] 0.099 | quisinostat -0.113 | tipifarnib -0.02 | [6] 0.011 | [7] 0.062 | [8] 0.044

DIPK2A (UniProt Q8NDZ4)
inactive: lapatinib -0.143 | pictilisib 0.03 | crizotinib -0.13 | [1] -0.163 | duvelisib -0.004 | gandotinib -0.186 | tozasertib 0.122 | doramapimod 0.011 | bafetinib -0.068 | [2] 0.105 | dasatinib -0.069 | [5] -0.037 | quisinostat 0.053 | [6] -0.022 | [7] 0.062 | [8] -0.071

DGCR2 (UniProt P98153)
inactive: lapatinib 0.154 | [1] -0.138 | duvelisib 0.007 | gandotinib 0.005 | tozasertib -0.201 | [2] 0.109 | nilotinib 0.022 | [3] -0.082 | dasatinib 0.075 | [4] -0.009 | [5] 0 | tipifarnib -0.24 | [7] -0.061 | [8] -0.094

DGKQ (UniProt P52824)
inactive: lapatinib -0.069 | [1] 0.059 | duvelisib 0.097 | gandotinib -0.031 | tozasertib 0 | [2] -0.015 | nilotinib -0.074 | [3] -0.083 | dasatinib 0.016 | [4] -0.102 | [5] 0.056 | tipifarnib -0.156 | [7] -0.029 | [8] -0.352

DNAJC24 (UniProt Q6P3W2)
inactive: lapatinib 0.006 | crizotinib 0.074 | [1] 0.152 | duvelisib -0.025 | gandotinib -0.162 | tozasertib 0.073 | doramapimod 0.042 | [2] -0.134 | nilotinib 0 | [3] -0.093 | dasatinib 0.062 | [4] 0.02 | [5] -0.039 | quisinostat -0.042 | tipifarnib 0.063 | [6] 0.054 | [7] -0.041 | [8] -0.015

DIAPH1 (UniProt H9KV28)
inactive: lapatinib 0.003 | pictilisib 0.087 | crizotinib -0.047 | [1] -0.039 | gandotinib 0.199 | tozasertib 0.049 | doramapimod 0.099 | bafetinib -0.171 | [2] 0.158 | nilotinib -0.027 | [3] -0.122 | [4] 0.053 | quisinostat -0.093 | tipifarnib -0.051 | [6] -0.001 | [7] 0.05 | [8] 0.111

DGKA (UniProt P23743)
inactive: lapatinib -0.014 | pictilisib 0.092 | [1] 0.045 | duvelisib 0.125 | gandotinib -0.143 | tozasertib 0.021 | bafetinib -0.211 | [2] -0.054 | nilotinib 0.041 | [3] 0.031 | dasatinib 0.272 | [4] -0.03 | [5] 0.206 | tipifarnib -0.072 | [7] 0.085

DNPEP (UniProt B9ZVU2)
inactive: lapatinib -0.038 | crizotinib 0.042 | duvelisib -0.048 | tozasertib 0.015 | doramapimod -0.071 | nilotinib 0.07 | [3] 0.005 | dasatinib -0.009 | [4] -0.001 | [5] 0.038 | quisinostat 0.087 | tipifarnib 0.014 | [6] 0.044 | [7] -0.004 | [8] -0.05

Two entries picked at random from those above, as already listed:
DNAJC24 (UniProt Q6P3W2)
inactive: lapatinib 0.006 | crizotinib 0.074 | [1] 0.152 | duvelisib -0.025 | gandotinib -0.162 | tozasertib 0.073 | doramapimod 0.042 | [2] -0.134 | nilotinib 0 | [3] -0.093 | dasatinib 0.062 | [4] 0.02 | [5] -0.039 | quisinostat -0.042 | tipifarnib 0.063 | [6] 0.054 | [7] -0.041 | [8] -0.015

DIAPH1 (UniProt H9KV28)
inactive: lapatinib 0.003 | pictilisib 0.087 | crizotinib -0.047 | [1] -0.039 | gandotinib 0.199 | tozasertib 0.049 | doramapimod 0.099 | bafetinib -0.171 | [2] 0.158 | nilotinib -0.027 | [3] -0.122 | [4] 0.053 | quisinostat -0.093 | tipifarnib -0.051 | [6] -0.001 | [7] 0.05 | [8] 0.111

Further entries follow:

DNAJB1 (UniProt M0R128)
inactive: lapatinib -0.276 | pictilisib 0.156 | [1] -0.415 | gandotinib 0.339 | bafetinib -0.639 | [2] 0.528 | nilotinib -0.133 | [3] 0.128 | [4] -0.074 | tipifarnib -0.02 | [7] 0.189 | [8] -0.303

DHRS13 (UniProt Q6UX07)
inactive: lapatinib 0.048 | pictilisib -0.052 | crizotinib -0.048 | duvelisib 0.185 | doramapimod 0.087 | bafetinib -0.113 | nilotinib 0.133 | [3] 0.385 | dasatinib 0.048 | [4] -0.142 | [5] 0.142 | quisinostat 0.078 | tipifarnib -0.223 | [6] -0.011 | [7] -0.08 | [8] -0.121

DNAH5 (UniProt Q8TE73)
inactive: lapatinib 0.043 | pictilisib -0.005 | duvelisib -0.051 | gandotinib 0.181 | bafetinib -0.047 | [2] 0.175 | nilotinib -0.029 | [3] -0.036 | dasatinib -0.072 | [4] -0.013 | [5] -0.156 | tipifarnib -0.128 | [7] -0.073 | [8] -0.049
active: [1] -0.422
